These results are taken from paper PMC12785128.

Chains of the proteins cited; added tags and fusions are not shown. Lines headed by an entry give the natural chain unless they say otherwise; changes in a name come on top. Residues count along the entry.
UniProt P01033, residues 24-207: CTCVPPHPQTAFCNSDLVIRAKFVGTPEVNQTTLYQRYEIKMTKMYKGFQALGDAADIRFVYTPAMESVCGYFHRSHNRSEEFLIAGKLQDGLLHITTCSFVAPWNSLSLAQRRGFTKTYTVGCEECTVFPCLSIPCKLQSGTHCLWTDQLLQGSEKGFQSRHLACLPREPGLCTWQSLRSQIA
UniProt P12032, residues 25-205: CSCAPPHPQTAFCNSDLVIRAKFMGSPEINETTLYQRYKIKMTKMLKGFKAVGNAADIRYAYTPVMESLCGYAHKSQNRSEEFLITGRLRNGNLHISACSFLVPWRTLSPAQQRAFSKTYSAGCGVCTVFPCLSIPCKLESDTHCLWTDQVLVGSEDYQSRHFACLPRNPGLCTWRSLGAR
UniProt P09055, residues 21-798: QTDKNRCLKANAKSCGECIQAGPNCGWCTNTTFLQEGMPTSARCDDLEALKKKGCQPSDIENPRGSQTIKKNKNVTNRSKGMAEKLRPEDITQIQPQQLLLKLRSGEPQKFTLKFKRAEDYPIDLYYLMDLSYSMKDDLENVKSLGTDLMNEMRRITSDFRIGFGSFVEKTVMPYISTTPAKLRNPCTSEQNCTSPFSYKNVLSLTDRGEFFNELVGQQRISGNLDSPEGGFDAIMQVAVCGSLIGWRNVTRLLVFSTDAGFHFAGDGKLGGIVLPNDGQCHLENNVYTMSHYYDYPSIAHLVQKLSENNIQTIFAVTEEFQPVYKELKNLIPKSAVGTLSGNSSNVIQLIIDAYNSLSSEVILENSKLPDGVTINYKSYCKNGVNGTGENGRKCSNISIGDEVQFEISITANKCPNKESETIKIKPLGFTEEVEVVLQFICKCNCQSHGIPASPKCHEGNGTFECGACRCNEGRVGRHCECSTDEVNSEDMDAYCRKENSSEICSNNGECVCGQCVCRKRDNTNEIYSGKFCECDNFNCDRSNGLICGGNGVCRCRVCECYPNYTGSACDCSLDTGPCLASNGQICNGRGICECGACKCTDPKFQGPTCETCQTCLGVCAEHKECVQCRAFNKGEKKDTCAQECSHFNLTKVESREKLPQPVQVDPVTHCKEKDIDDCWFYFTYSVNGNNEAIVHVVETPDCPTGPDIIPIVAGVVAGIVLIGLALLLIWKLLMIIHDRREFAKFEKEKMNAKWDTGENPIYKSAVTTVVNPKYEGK
UniProt P05556: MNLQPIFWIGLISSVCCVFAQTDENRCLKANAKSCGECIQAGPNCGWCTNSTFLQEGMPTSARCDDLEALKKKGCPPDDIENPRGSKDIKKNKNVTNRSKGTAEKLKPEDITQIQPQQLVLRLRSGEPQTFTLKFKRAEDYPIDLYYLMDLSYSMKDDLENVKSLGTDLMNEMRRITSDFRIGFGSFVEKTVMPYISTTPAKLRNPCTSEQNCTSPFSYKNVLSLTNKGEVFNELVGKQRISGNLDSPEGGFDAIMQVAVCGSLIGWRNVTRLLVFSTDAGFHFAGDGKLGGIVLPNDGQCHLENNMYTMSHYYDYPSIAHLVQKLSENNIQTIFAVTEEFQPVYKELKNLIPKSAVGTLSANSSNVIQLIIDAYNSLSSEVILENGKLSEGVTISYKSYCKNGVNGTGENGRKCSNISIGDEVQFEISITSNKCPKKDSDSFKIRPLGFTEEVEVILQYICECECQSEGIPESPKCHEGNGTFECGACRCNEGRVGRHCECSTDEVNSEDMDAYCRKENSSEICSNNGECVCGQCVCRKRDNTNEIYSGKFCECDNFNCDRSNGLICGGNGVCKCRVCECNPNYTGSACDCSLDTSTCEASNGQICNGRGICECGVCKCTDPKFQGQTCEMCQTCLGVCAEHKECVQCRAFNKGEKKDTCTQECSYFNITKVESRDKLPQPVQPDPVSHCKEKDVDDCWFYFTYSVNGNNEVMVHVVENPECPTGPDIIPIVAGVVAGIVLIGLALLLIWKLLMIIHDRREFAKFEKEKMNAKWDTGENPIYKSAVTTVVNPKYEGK

Test [1] concerns the target tissue inhibitor of metalloproteinases-1 (TIMP1), endogenous in THP-1-derived macrophages (human (endogenous in THP-1)) (UniProt P01033). The test can be described thus: co-IP; precleared cell lysates incubated overnight at 4 °C with protein A/G agarose beads carrying anti-TIMP1 or normal IgG; washed with lysis buffer; Western blot for CD63, β1-integrin and TIMP1; endogenous proteins of RAW264.7 and THP-1-derived macrophages.

Test [2] deals with tissue inhibitor of metalloproteinases-1 (TIMP1), endogenous in RAW264.7 macrophages (mouse (endogenous in RAW264.7)) (UniProt P12032). The test is described as above.

These are yes or no findings as the source states them, for the method shown. In cells and extracts the contact can be indirect. Some results given as binding are weak or reduced against the parent protein; the word gives no strength.

In the case of “CD63, endogenous in THP-1-derived macrophages (from UniProt P08962 1-238) (receptor)”, the binding entry in test [1] is “binds”.

In the case of “β1-integrin, endogenous in RAW264.7 macrophages (from UniProt P09055 21-798) (receptor)”, in test [2], the binding result is on record as “binds”.

As for “β1-integrin, endogenous in THP-1-derived macrophages (from UniProt P05556 21-798) (receptor)”, the binding result in test [1] is “binds”.

B1: CD63, endogenous in RAW264.7 macrophages (receptor, UniProt P41731 1-238)
chain: MAVEGGMKCVKFLLYVLLLAFCACAVGLIAIGVAVQVVLKQAITHETTAGSLLPVVIIAVGAFLFLVAFVGCCGACKENYCLMITFAIFLSLIMLVEVAVAIAGYVFRDQVKSEFNKSFQQQMQNYLKDNKTATILDKLQKENNCCGASNYTDWENIPGMAKDRVPDSCCINITVGCGNDFKESTIHTQGCVETIAIWLRKNILLVAAAALGIAFVEVLGIIFSCCLVKSIRSGYEVM
As for B1, the binding result in test [2] was “binds”.
